This assay is described as follows: qHTS Assay to Find Inhibitors of Chronic Active B-Cell Receptor Signaling. To be noted: ABC-DLBCL IkBa-CBG/CBR reporter, luminescence ratio (green luciferase fused to IkBa over red control in TMD8 lymphoma cells), 4 h. The method in brief: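 Cell line TMD8 (human ABC DLBCL), stably expressing tet-inducible CBG68-IkBa fusion and CBR; IMDM/0.5% FBS; cpd up to 46 uM; dox induction, 4 h, 37C/5% CO2; dual luminescence; green/red ratio; MG132 control.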

Setting [1] is: measured here: CBR red luminescence, cell number.
The mark [2] stands for this setting: measured here: IkBa-CBG green luminescence.

Molecules are shown by their SMILES. This is one part of the list. The main result of the screen is listed elsewhere. These columns were measured beside it and carry no call. Most of these compounds were active or inconclusive in the main read-out, so they are no random draw. Potencies come from curve fits of mixed quality, noted in brackets.

A word on the AC50: it is the concentration giving half of the maximal activity seen. Take `CCOP(=O)(OCC)c1nc(-c2cccc3ccccc23)oc1NCc1ccccc1`: the AC50 under setting [1] is 0.92 µM [rising, full curve, poor fit]. The same measure, in the same setting: next, `CC(=O)OC1(c2ccccc2)CCN(C)CC1(C)C` (stereo not drawn): 7.94 µM [falling, partial curve]; `Cc1c(N=Cc2c(O)n(Cc3ccc(F)cc3)c(=O)[nH]c2=O)c(=O)n(-c2ccccc2)n1C`: 6.51 µM [rising, single point]. On the same count and under the same terms, the value for `CC(=NCCc1c[nH]c2ccccc12)c1c(O)n(Cc2ccccc2)c(=O)[nH]c1=O` was 17.8 µM [falling, partial curve]; that for `Cc1ccc(N)c(N)c1` was 11.6 µM [falling, single point]; that for `Cc1ccc(-c2nc3ccccc3c(=O)n2-c2ccccn2)cc1` was 23.1 µM [rising, single point]. Still for that read-out and setting: next, `CCCCCc1cc(O)c2c3c(c(=O)oc2c1)CN(C)CC3`: 7.94 µM [rising, partial curve]; `CCN(CC)c1ccc2c(-c3ccc(S(=O)(=O)O)cc3S(=O)(=O)[O-])c3ccc(=[N+](CC)CC)cc-3oc2c1`: 10 µM [rising, partial curve]; `O=C(COC(=O)Cc1ccccc1)Nc1nnc(-c2ccccc2)o1`: 23.1 µM [falling, partial curve, poor fit].

As for `Fc1ccc(NC2=NCCS2)cc1Cl`, the AC50 under setting [1] was 25.9 µM [rising, single point]. Turning to `CCCC1(CCC)C(=O)NC(=NCc2ccccc2)NC1=O`, under setting [1], the AC50 was 35.5 µM [rising, single point]. On to `Cc1noc(C)c1CSCC(=O)Nc1ccc(C#N)c(Cl)c1`, for which the AC50 under setting [1] was 29.1 µM [falling, single point]. The same measure, in the same setting: the value for `CC(C)C[C@H](NC(=O)c1[nH]cnc1C(=O)N[C@H](C)c1ccccc1)C(=O)OC(C)(C)C` was 17.8 µM [rising, partial curve, poor fit]; that for `O=S(=O)(c1ccccc1)N1CCCCC1c1cccnc1` (stereo not drawn) was 0.794 µM [falling, full curve]; that for `COc1ccccc1OCCCn1cc(C=O)c2ccccc21` was 11.2 µM [rising, single point].

As for `COc1cc(O)c(C(=O)O)c(-c2cc(O)c(O)cc2C)c1`, the AC50 under setting [1] is 25.1 µM [rising, single point]. As to `CC1(C)CN=C(Nc2ccc(F)c(F)c2)S1`, the AC50 under setting [1] is 0.517 µM [rising, partial curve, poor fit]. Same read-out and setting: next, `CN1CCC(N(C)c2nc(-c3ccc([N+](=O)[O-])cc3)nc3ccccc23)CC1`: 23.1 µM [falling, single point]; `CC(C)N1CCN(Cc2cc3c(cc2Cl)OCO3)CC1CCO` (stereo not drawn): 10 µM [falling, partial curve]. In the case of `CCCCn1c(O)c(C(CC)=NCc2ccc3c(c2)OCO3)c(=O)[nH]c1=O`, the AC50 is 4.11 µM [falling, partial curve] under setting [1] and 23.1 µM [rising, partial curve, poor fit] under setting [2]. Turning to `CCCC[N+]12CCC(CC1)C(C(O)(c1ccccc1)c1ccccc1)C2` (stereo not drawn), the AC50 under setting [1] is 10 µM [falling, partial curve, poor fit]. On the same count and under the same terms, the value for `Oc1cc2c(cc1O)[C@H]1c3ccccc3CN[C@@H]1CC2` was 20 µM [falling, single point]. On the same count and under the same terms, next, `CN1C(=O)C(O)N=C(c2ccccc2)c2ccccc21` (stereo not drawn): 11.2 µM [rising, partial curve, poor fit]; `OC(c1cccc(Cl)c1)(c1cccc(Cl)c1)C1CN2CCC1CC2` (stereo not drawn): 7.94 µM [falling, partial curve, poor fit]. Still for that read-out and setting: next, `COC(=O)C1=C(c2ccc(-c3ccccc3)c(F)c2)C[C@@H]2CC[C@H]1N2C(=O)N1CCCC1`: 29.1 µM [falling, single point]. Take `COc1cc(/C=C(/C)[N+](=O)[O-])ccc1OCc1ccccc1Cl`: the AC50 under setting [1] is 20.6 µM [falling, single point]. The same measure, in the same setting: the value for `COc1cc(CN=C(C)c2c(O)n(C3CCCCC3)c(=O)[nH]c2=O)cc(OC)c1` was 3.98 µM [rising, full curve, poor fit]; that for `Cc1ncc([N+](=O)[O-])n1CCOC(N)=O` was 1.12 µM [rising, full curve, poor fit]; that for `Cc1ccc(-c2nn(Cc3ccccc3)cc2C(=O)O)cc1` was 35.5 µM [rising, single point]. On the same count and under the same terms, next, `O=C(Cn1ncc2c3ccccc3n(Cc3cccc(Cl)c3)c2c1=O)N1CCC2(CC1)OCCO2`: 7.08 µM [falling, partial curve]; `CNC(=O)O/N=C(\N)Cc1csc2ccccc12`: 0.891 µM [rising, full curve, poor fit]; `Cc1ccccc1CN1CCCN(Cc2ccc(Cl)cc2)S1(=O)=O`: 0.112 µM [rising, full curve, poor fit]. The same measure, in the same setting: next, `COc1ccc(C(=O)C2CCCN(Cc3ccon3)C2)c(OC)c1` (stereo not drawn): 12.6 µM [rising, single point]. Regarding `CCOC(=O)C(=CNc1ccc(C(O)(C(=O)OCC)C(F)(F)F)cc1C)C(=O)OCC` (stereo not drawn), under setting [1], the AC50 was 8.2 µM [falling, single point]. On the same count and under the same terms, the value for `CCOC(=O)n1c(=O)oc2ccccc21` was 39.8 µM [falling, partial curve, poor fit].

On to `O=C(CCCCCn1c(=S)[nH]c2ccccc2c1=O)N1CCC2(CC1)OCCO2`, for which the AC50 under setting [1] was 3.16 µM [falling, partial curve]. Still for that read-out and setting: next, `Cn1c(O)c(C=Nc2cccc(C(F)(F)F)c2)c(=O)n(C)c1=O`: 35.5 µM [rising, single point]. With `Cc1[nH]c2ccc(OCc3ccccc3)cc2c1CCN`, under setting [1], the AC50 was 11.2 µM [falling, partial curve, poor fit]. On the same count and under the same terms, next, `COC1=CC2C3Cc4ccc(OC)c(O)c4C2(CCN3C)CC1=O` (stereo not drawn): 23.1 µM [falling, single point]; `COc1ccc(CCn2c(O)c(C=Nc3ccccc3F)c(=O)[nH]c2=O)cc1OC`: 3.55 µM [falling, partial curve, poor fit]; `CC1CCCC(C)N1CC(O)COC1CCC(C(C)(C)C)CC1` (stereo not drawn): 25.1 µM [falling, single point]. Turning to `CN1CCN(c2ccc(NC(=O)c3ccc([N+](=O)[O-])o3)cc2Cl)CC1`, the AC50 under setting [1] is 12.6 µM [falling, partial curve, poor fit]. With `N#Cc1cccc(NC(=O)c2sc3nc4c(cc3c2N)N2CCC4CC2)c1`, the AC50 under setting [1] is 1.12 µM [falling, full curve, poor fit]. The same measure, in the same setting: the value for `CCc1c(C2(O)CCCCC2)[nH]c2ccc(C(F)(F)F)cc12` was 22.4 µM [falling, partial curve, poor fit]; that for `O=C1CC(N2CC=C(c3ccccc3)CC2)C(=O)N1c1ccc(F)cc1` (stereo not drawn) was 25.9 µM [falling, single point]; that for `Oc1ccccc1/C=N/NP(=S)(c1ccccc1)c1ccccc1` was 15.8 µM [falling, single point]. The same measure, in the same setting: the value for `CCNC(=O)NNC(=O)C1CC(c2cccnc2)=NO1` (stereo not drawn) was 35.5 µM [rising, single point]; that for `CN(C)C(=O)Oc1cc(=O)n2c3c(cccc13)CCC2` was 0.00411 µM [rising, full curve, poor fit]. For `Cc1onc(-c2ccccc2Cl)c1C(=O)OCC(=O)c1ccc2c(c1)OCCO2`, under setting [1], the AC50 was 17.8 µM [falling, partial curve]. For the molecule `COc1cc2c(cc1O)[C@@H]1Cc3ccc(OC)c(O)c3CN1CC2`, the AC50 by setting is: under setting [1], 10.3 µM [rising, partial curve]; under setting [2], 20.6 µM [falling, single point]. As to `CCc1cc2c(N3CCN(C)CC3)ncnc2s1`, the AC50 under setting [1] was 0.116 µM [rising, full curve]. With `C=Cn1ccnc1P(=S)(c1ccc(N(C)C)cc1)c1nccn1C=C`, the half-maximal activity concentration (AC50) under setting [1] is 6.31 µM [rising, single point]. Still for that read-out and setting: next, `Clc1ccc2c(c1)C(OC1CN3CCC1CC3)c1ccccc1CS2` (stereo not drawn): 18.4 µM [falling, partial curve, poor fit]; `N#CC1=C(N)C(C#N)(C#N)[C@H](c2ccncc2)[C@H]2CN(C(=O)OCc3ccccc3)CC=C12`: 20.6 µM [falling, single point].

`CCCn1cc2c3c(cccc31)C1CC(C)CN(C)C1C2` (stereo not drawn): the AC50 under setting [1] was 2.24 µM [rising, partial curve, poor fit]. Take `Cn1cccc1/C=C1/C(=O)NC(=O)N(Cc2ccccc2)C1=O`: the AC50 is, setting by setting: under setting [1], 29.1 µM [rising, single point]; under setting [2], 25.9 µM [falling, single point]. As for `COc1cc(C2c3cc4c(cc3CC3COC(=O)C32)OCO4)cc(OC)c1OC` (stereo not drawn), the AC50 is, setting by setting: under setting [1], 10.3 µM [rising, partial curve]; under setting [2], 11.6 µM [falling, partial curve]. Consider `CC(=O)N1N=C(c2c(O)n(C)c(=O)n(C)c2=O)CC1c1ccccc1` (stereo not drawn), for which, under setting [1], the AC50 was 35.5 µM [falling, single point].

With `CCOC(=O)c1c(C)[nH]c(C(=O)OCC(=O)N2c3ccccc3CC2C)c1C` (stereo not drawn), the AC50 under setting [1] was 35.5 µM [falling, single point]. Same read-out and setting: next, `CN1CCN(C(=S)SCC(=O)Nc2ccc(Cl)cc2C(=O)c2ccccc2)CC1`: 25.9 µM [falling, partial curve, poor fit]; `CC/C(C)=N/NC(=O)c1[nH]c2ccc(C)cc2c1-c1ccccc1`: 7.94 µM [rising, partial curve]; `Cc1ccc(/C=C(/C#N)C(=O)NC(=O)Oc2ccccc2)cc1`: 29.1 µM [falling, single point]. Still for that read-out and setting: the value for `C/C(=N\NP(=S)(c1ccccc1)c1ccccc1)c1ccc(O)cc1O` was 3.98 µM [falling, partial curve, poor fit]; that for `Cc1ccccc1C(O)(Cc1ccccc1)C1CN2CCC1CC2` (stereo not drawn) was 11.6 µM [falling, single point].

The values above are taken from PubChem BioAssay AID493014 (National Center for Advancing Translational Sciences (NCATS), 2011).
